The source holds more than one record for some entries. Only these are listed. The source may hold further records. Results that share an entry differ for a reason that is not stated; dose, time, organism, isomer or construct need not be as stated for each record.
Test system: cancer cells (MiaPaCa-2, MDA-MB-231, MCF-7, A549)
Assay: Cell proliferation (IncuCyte), several cancer cell lines
Conditions: vs NAC

CC(=O)N[C@@H](CS)C(=O)NCCCCCCCCCC[P+](c1ccccc1)(c1ccccc1)c1ccccc1
antiproliferative potency of Mito10-NAC relative to NAC (times/fold): 1,500-2,000 fold and 2,000 fold and 1,500-2,400 fold

— patent US20260382643A1, “MITOCHONDRIA-TARGETED N-ACETYLCYSTEINE AND ANALOGS” (published 2026)
